Reference: article PMC9438302
No constants are given. Whether binding was seen depends on the method and setting. Binding seen in cells or lysates may run through a third protein. Here binding means that the protein was enriched with, or labelled near, the bait; the list need not be complete.

Target: NF90-FLAG-HA
Assay: affinity purification with mass spectrometry; tandem immunoprecipitation (Flag then HA, peptide elution) from 10 mg of cytoplasmic extract of HEK293T stably overexpressing NF90-FLAG-HA; mock HEK293T as control

Row | binding | Binder
1 | binds | UP-frameshift-1 (UPF1) (protein, UniProt Q92900 1-1129) MSVEAYGPSSQTLTFLDTEEAELLGADTQGSEFEFTDFTLPSQTQTPPGGPGGPGGGGAGGPGGAGAGAAAGQLDAQVGPEGILQNGAVDDSVAKTSQLLAELNFEEDEEDTYYTKDLPIHACSYCGIHDPACVVYCNTSKKWFCNGRGNTSGSHIVNHLVRAKCKEVTLHKDGPLGETVLECYNCGCRNVFLLGFIPAKADSVVVLLCRQPCASQSSLKDINWDSSQWQPLIQDRCFLSWLVKIPSEQEQLRARQITAQQINKLEELWKENPSATLEDLEKPGVDEEPQHVLLRYEDAYQYQNIFGPLVKLEADYDKKLKESQTQDNITVRWDLGLNKKRIAYFTLPKTDSGNEDLVIIWLRDMRLMQGDEICLRYKGDLAPLWKGIGHVIKVPDNYGDEIAIELRSSVGAPVEVTHNFQVDFVWKSTSFDRMQSALKTFAVDETSVSGYIYHKLLGHEVEDVIIKCQLPKRFTAQGLPDLNHSQVYAVKTVLQRPLSLIQGPPGTGKTVTSATIVYHLARQGNGPVLVCAPSNIAVDQLTEKIHQTGLKVVRLCAKSREAIDSPVSFLALHNQIRNMDSMPELQKLQQLKDETGELSSADEKRYRALKRTAERELLMNADVICCTCVGAGDPRLAKMQFRSILIDESTQATEPECMVPVVLGAKQLILVGDHCQLGPVVMCKKAAKAGLSQSLFERLVVLGIRPIRLQVQYRMHPALSAFPSNIFYEGSLQNGVTAADRVKKGFDFQWPQPDKPMFFYVTQGQEEIASSGTSYLNRTEAANVEKITTKLLKAGAKPDQIGIITPYEGQRSYLVQYMQFSGSLHTKLYQEVEIASVDAFQGREKDFIILSCVRANEHQGIGFLNDPRRLNVALTRARYGVIIVGNPKALSKQPLWNHLLNYYKEQKVLVEGPLNNLRESLMQFSKPRKLVNTINPGARFMTTAMYDAREAIIPGSVYDRSSQGRPSSMYFQTHDQIGMISAGPSHVAAMNIPIPFNLVMPPMPPPGYFGQANGPAAGRGTPKGKTGRGGRQKNRFGLPGPSQTNLPNSQASQDVASQPFSQGALTQGYISMSQPSQMSQPGLSQPELSQDSYLGDEFKSQIDVALSQDSTYQGERAYQHGGVTGLSQY
2 | binds | DexH-box helicase 30 (DHX30) (protein, UniProt Q7L2E3 1-1194) MFSLDSFRKDRAQHRQRQCKLPPPRLPPMCVNPTPGGTISRASRDLLKEFPQPKNLLNSVIGRALGISHAKDKLVYVHTNGPKKKKVTLHIKWPKSVEVEGYGSKKIDAERQAAAAACQLFKGWGLLGPRNELFDAAKYRVLADRFGSPADSWWRPEPTMPPTSWRQLNPESIRPGGPGGLSRSLGREEEEDEEEELEEGTIDVTDFLSMTQQDSHAPLRDSRGSSFEMTDDDSAIRALTQFPLPKNLLAKVIQIATSSSTAKNLMQFHTVGTKTKLSTLTLLWPCPMTFVAKGRRKAEAENKAAALACKKLKSLGLVDRNNEPLTHAMYNLASLRELGETQRRPCTIQVPEPILRKIETFLNHYPVESSWIAPELRLQSDDILPLGKDSGPLSDPITGKPYVPLLEAEEVRLSQSLLELWRRRGPVWQEAPQLPVDPHRDTILNAIEQHPVVVISGDTGCGKTTRIPQLLLERYVTEGRGARCNVIITQPRRISAVSVAQRVSHELGPSLRRNVGFQVRLESKPPSRGGALLFCTVGILLRKLQSNPSLEGVSHVIVDEVHERDVNTDFLLILLKGLQRLNPALRLVLMSATGDNERFSRYFGGCPVIKVPGFMYPVKEHYLEDILAKLGKHQYLHRHRHHESEDECALDLDLVTDLVLHIDARGEPGGILCFLPGWQEIKGVQQRLQEALGMHESKYLILPVHSNIPMMDQKAIFQQPPVGVRKIVLATNIAETSITINDIVHVVDSGLHKEERYDLKTKVSCLETVWVSRANVIQRRGRAGRCQSGFAYHLFPRSRLEKMVPFQVPEILRTPLENLVLQAKIHMPEKTAVEFLSKAVDSPNIKAVDEAVILLQEIGVLDQREYLTTLGQRLAHISTDPRLAKAIVLAAIFRCLHPLLVVVSCLTRDPFSSSLQNRAEVDKVKALLSHDSGSDHLAFVRAVAGWEEVLRWQDRSSRENYLEENLLYAPSLRFIHGLIKQFSENIYEAFLVGKPSDCTLASAQCNEYSEEEELVKGVLMAGLYPNLIQVRQGKVTRQGKFKPNSVTYRTKSGNILLHKSTINREATRLRSRWLTYFMAVKSNGSVFVRDSSQVHPLAVLLLTDGDVHIRDDGRRATISLSDSDLLRLEGDSRTVRLLKELRRALGRMVERSLRSELAALPPSVQEEHGQLLALLAELLRGPCGSFDVRKTADD
